Results taken from PubChem BioAssay AID540256 (National Center for Advancing Translational Sciences (NCATS), 2011).
Hit rate of the full screen: of about 300,000 compounds, about 3,700 (1.2%) were called active. The inconclusive results got no clear call from the source; some entries with a clear call stand among them for comparison. Calls follow the shape of the full dose curve; tested in HEK293 cells. Potencies of inconclusive entries are doubtful fits and often do not repeat.

assay: qHTS for Inhibitors of binding or entry into cells for Lassa Virus; conditions: Lassa virus pseudotype entry inhibition, cell reporter; activity change, negative = inhibition: at 37.9 µM (top of the series) unless noted; also: nearly all actives have a fitted effect of over 50% in size
% is scaled to controls: 0 for no effect and ±100 for the full control effect; potency is read from the fitted curve at half-maximal effect.

| Compound | activity change, negative = inhibition | Potency |
| --- | --- | --- |
| Cc1ccc(-c2cnc(N)n2C)cc1C | inactive: 21% |  |
| COc1cc(/C=C/c2nc3cc(Cl)ccc3c(=O)n2-c2ccc(C)cc2C)cc(OC)c1OC | inactive: 18.1% [at 46.1 µM] |  |
| O=C(COc1cccc(NC(=O)c2cccc([N+](=O)[O-])c2)c1)c1ccc(Br)cc1 |  | active: 22.4 µM |
| Cc1csc(NC(=O)c2ccc(S(=O)(=O)N(C)c3ccccc3)cc2)n1 |  | inconclusive: 35.5 µM [inhibitor, single point] |
| COc1ccc(S(=O)(=O)NCC(c2ccco2)N2CCN(c3ccccc3F)CC2)cc1C (stereo not drawn) |  | inconclusive: 3.98 µM [inhibitor, full curve, poor fit] |
| Cc1ccccc1Cn1ccc(NC(=O)c2nn3cccnc3c2Cl)n1 | inactive: 12.3% [at 46.1 µM] |  |
| O=C(Nc1nc2ccccc2[nH]1)c1ccccc1F |  | active: 0.282 µM |
| CC1CN(C(=O)N2c3ccccc3Sc3ccccc32)CC(C)O1 (stereo not drawn) |  | inconclusive: 7.31 µM [inhibitor, partial curve, poor fit] |
| COc1cccc(CNC(=O)Cn2c(SCC(=O)Nc3ccc(C)c(C)c3)nc3ccccc32)c1 | inactive: -1.71% [at 46.1 µM] |  |
| O=C(COC(=O)COc1ccccc1)Nc1ccc(Br)cc1F |  | inconclusive: 0.794 µM [inhibitor, single point] |
| COc1ccc(-c2cc(C(=O)O)c3ccccc3n2)c(OC)c1 | inactive: 0.629% |  |
| Cc1nc2c(-c3ccccc3)cnn2c(N)c1-c1ccccc1 |  | inconclusive: 1.41 µM [inhibitor, partial curve, poor fit] |
| NC(=O)c1ccc(NC(=O)c2ccccc2S(=O)(=O)c2ccccc2[N+](=O)[O-])cc1 | inactive: 9.81% |  |
| O=C(NCC1CCCO1)c1sc2ccccc2c1Cl (stereo not drawn) |  | inconclusive: 11.2 µM [inhibitor, partial curve, poor fit] |
| O=C(NC1CCCc2ccccc21)c1ccccc1Br (stereo not drawn) | inactive: 26.2% |  |
| O=C(c1ccc(Cl)c(Cl)c1)N1CCC(=O)N(C(COCc2cccc(C(F)(F)F)c2)Cc2ccccc2)CC1 (stereo not drawn) |  | inconclusive: 29.1 µM [inhibitor, single point] |
| CSCc1nnc2n1-c1ccc(Cl)cc1C(c1ccccc1)=NC2 |  | inconclusive: 29.1 µM [inhibitor, single point] |
| Cc1ccc(-n2ncc3c(SCc4cccc(C)c4)ncnc32)cc1 | inactive: 1.52% |  |
| CCCS/C(N)=N/N=C/c1cc(C)ccc1O | inactive: -17.6% |  |
| C=C(C)CN=C1NN=C(c2cc(C)n(-c3ccc(C)cc3)c2C)CS1 |  | inconclusive: 35.5 µM [inhibitor, single point] |
| CCc1c(C)nc2ncnn2c1Nc1ccc(C(C)=O)cc1 |  | inconclusive: 1.3 µM [activator, single point] |
| O=c1c2ccccc2cnn1CCOc1ccccc1 |  | active: 0.282 µM |
| Cc1ccccc1Nc1nnc(-c2ccc(C)c(S(=O)(=O)N3CCCCC3)c2)c2ccccc12 |  | inconclusive: 28.2 µM [inhibitor, single point] |
| CN(C)CCCN(C(=O)c1ccc(Br)s1)c1nc2cc3c(cc2s1)OCCO3 |  | inconclusive: 35.5 µM [inhibitor, single point] |
| Cc1[nH]c2ccccc2c1C(=O)CN1CCC(C)CC1 | inactive: 13.6% |  |

| Compound | activity change, negative = inhibition | Potency |
| --- | --- | --- |
| CCOc1ccc(OCC)c(NC(=O)CN(C)S(=O)(=O)c2ccc3nc(C)sc3c2)c1 |  | inconclusive: 6.51 µM [inhibitor, partial curve, poor fit] |
| COc1ccc(CNC(=O)c2ccc3c(c2)N(Cc2ccccc2)CCS3)cc1 |  | active: 4.47 µM |
| Cc1[nH]n2c(=O)cc(Cc3ccccc3)nc2c1C#N | inactive: 8.68% |  |
| CCOC(=O)c1nnn(CC(=O)NC(=O)Nc2ccc(F)cc2)c1C(=O)OCC |  | inconclusive: 6.31 µM [inhibitor, single point] |
| CCOC(=O)c1c(C)n(S(=O)(=O)c2ccc(C)cc2)c2ccc(NS(=O)(=O)c3ccc(C)cc3)cc12 |  | active: 6.31 µM |
| O=C(N/N=C/c1cccs1)[C@H]1C[C@@H]1c1ccccc1 | inactive: -13.6% |  |
| COc1ccccc1NC(=O)N1CCCC(CNC(=O)c2ccccc2Cl)C1 (stereo not drawn) | inactive: 5.56% [at 46.1 µM] |  |
| O=[N+]([O-])c1ccc2nc(-c3ccccc3)cc(-c3ccccc3)c2c1 | inactive: -2.2% |  |
| CCOC(=O)c1ccc(/C=C2/C=C(c3ccccc3)N(c3ccc(Cl)c(C(=O)O)c3)C2=O)cc1 |  | inconclusive: 0.891 µM [inhibitor, full curve, poor fit] |
| Cc1ccc(N=c2sc(C)c(C)n2C)cc1 |  | inconclusive: 29.1 µM [activator, single point] |
| CCc1cccc(NC(=O)c2cccc3c2C(=O)N(C2CCCCC2)C3)c1 | inactive: 27% [at 46.1 µM] |  |
| O=C(NCC(c1cccnc1)N1CCc2ccccc21)C(=O)Nc1ccccc1F (stereo not drawn) | inactive: 0.62% [at 46.1 µM] |  |
| COc1nnc(-c2ccc(N3CCCCC3)c(NC(=O)c3ccccc3)c2)c2ccccc12 | inactive: 24.3% [at 46.1 µM] |  |
| CCOC(=O)c1ccc(NC(=O)N2CCN(c3ccccn3)CC2)cc1 | inactive: 25.5% |  |
| COc1ccc(Cl)cc1NS(=O)(=O)c1c(C)[nH]c(=O)[nH]c1=O |  | inconclusive: 1.26 µM [inhibitor, partial curve, poor fit] |
| CCOc1ccc2nc(NCCNC(=S)NCCCN(C)C)c(C#N)cc2c1 |  | inconclusive: 15.8 µM [inhibitor, single point] |
| Cc1ccc(Cn2c(C)c3cnn(CC(=O)N4CCN(c5ccc(F)cc5)CC4)c(=O)c3c2C)cc1 |  | inconclusive: 6.31 µM [activator, partial curve, poor fit] |
| O=c1c2ccccc2nc2n1CCc1c-2[nH]c2ccccc12 |  | inconclusive: 1.83 µM [activator, full curve] |
| O=C(/C=C/c1ccccc1)N1CCN(Cc2cc(=O)n3nc(-c4ccccc4Cl)sc3n2)CC1 | inactive: -6.2% [at 46.1 µM] |  |
| COc1ccc(NC(=S)N2N=CCC2c2ccccc2)cc1 (stereo not drawn) |  | inconclusive: 0.0052 µM [activator, full curve, poor fit] |
| O=C(Nc1ccccc1)Oc1ccccc1 |  | inconclusive: 1.64 µM [activator, partial curve, poor fit] |
| CCN(CC)C(=O)CSc1nnc(-c2ccco2)n1Cc1ccco1 |  | inconclusive: 0.184 µM [inhibitor, full curve] |
| COC(=O)c1[nH]c2ccc(Cl)cc2c1NC(=O)CN1CCc2cc(OC)c(OC)cc2C1 |  | inconclusive: 22.4 µM [inhibitor, single point] |
| O=C(NCC(c1ccc2c(c1)OCO2)N1CCN(c2ccccc2)CC1)c1ccccc1 (stereo not drawn) |  | inconclusive: 35.5 µM [inhibitor, single point] |
| Cc1noc(C)c1COc1ccccc1C(=O)N(C)CC(=O)Nc1ccc(F)cc1 |  | inconclusive: 6.31 µM [activator, partial curve, poor fit] |

A stretch of the results above, for reference:

| Compound | activity change, negative = inhibition | Potency |
| --- | --- | --- |
| CCOc1ccc(OCC)c(NC(=O)CN(C)S(=O)(=O)c2ccc3nc(C)sc3c2)c1 |  | inconclusive: 6.51 µM [inhibitor, partial curve, poor fit] |
| COc1ccc(CNC(=O)c2ccc3c(c2)N(Cc2ccccc2)CCS3)cc1 |  | active: 4.47 µM |
| Cc1[nH]n2c(=O)cc(Cc3ccccc3)nc2c1C#N | inactive: 8.68% |  |
| CCOC(=O)c1nnn(CC(=O)NC(=O)Nc2ccc(F)cc2)c1C(=O)OCC |  | inconclusive: 6.31 µM [inhibitor, single point] |
| CCOC(=O)c1c(C)n(S(=O)(=O)c2ccc(C)cc2)c2ccc(NS(=O)(=O)c3ccc(C)cc3)cc12 |  | active: 6.31 µM |
| O=C(N/N=C/c1cccs1)[C@H]1C[C@@H]1c1ccccc1 | inactive: -13.6% |  |
| COc1ccccc1NC(=O)N1CCCC(CNC(=O)c2ccccc2Cl)C1 (stereo not drawn) | inactive: 5.56% [at 46.1 µM] |  |
| O=[N+]([O-])c1ccc2nc(-c3ccccc3)cc(-c3ccccc3)c2c1 | inactive: -2.2% |  |
| CCOC(=O)c1ccc(/C=C2/C=C(c3ccccc3)N(c3ccc(Cl)c(C(=O)O)c3)C2=O)cc1 |  | inconclusive: 0.891 µM [inhibitor, full curve, poor fit] |
| Cc1ccc(N=c2sc(C)c(C)n2C)cc1 |  | inconclusive: 29.1 µM [activator, single point] |
| CCc1cccc(NC(=O)c2cccc3c2C(=O)N(C2CCCCC2)C3)c1 | inactive: 27% [at 46.1 µM] |  |
| O=C(NCC(c1cccnc1)N1CCc2ccccc21)C(=O)Nc1ccccc1F (stereo not drawn) | inactive: 0.62% [at 46.1 µM] |  |
| COc1nnc(-c2ccc(N3CCCCC3)c(NC(=O)c3ccccc3)c2)c2ccccc12 | inactive: 24.3% [at 46.1 µM] |  |
| CCOC(=O)c1ccc(NC(=O)N2CCN(c3ccccn3)CC2)cc1 | inactive: 25.5% |  |
| COc1ccc(Cl)cc1NS(=O)(=O)c1c(C)[nH]c(=O)[nH]c1=O |  | inconclusive: 1.26 µM [inhibitor, partial curve, poor fit] |
| CCOc1ccc2nc(NCCNC(=S)NCCCN(C)C)c(C#N)cc2c1 |  | inconclusive: 15.8 µM [inhibitor, single point] |

Following part:

| Compound | activity change, negative = inhibition | Potency |
| --- | --- | --- |
| COc1ccc(NC(C)=O)cc1NC(=O)CCn1c(=O)sc2ccccc21 | inactive: 17.4% |  |
| Cc1cc(-c2ccc(C)c(S(=O)(=O)Nc3ccc(C)c(N(C)C)c3)c2)on1 |  | inconclusive: 7.94 µM [inhibitor, partial curve, poor fit] |
| COc1cc2ccccc2cc1C(=O)Nc1ccc(N2CCN(C)CC2)cc1 |  | inconclusive: 3.66 µM [activator, partial curve, poor fit] |
| O=C(NC1(C(F)(F)F)N=C(c2ccccc2)N(Cc2ccccc2)C1=O)c1ccc(F)cc1 (stereo not drawn) |  | inconclusive: 6.31 µM [inhibitor, single point] |
| Cc1ccc(C)c(NS(=O)(=O)c2ccc3c(c2)NC(=O)CO3)c1 |  | inconclusive: 12.6 µM [activator, single point] |
| O=S(=O)(c1ccc(NC(=S)Nc2ccccc2)cc1)N1CCOCC1 | inactive: 18.1% |  |
| O=C(N/N=C/c1ccc[nH]1)c1ccc([N+](=O)[O-])cc1 | inactive: 17.9% |  |
| COc1ccc(S(=O)(=O)N2CCCCCC2)cc1C(=O)N(C)CCOc1ccc(Cl)cc1 |  | active: 17.8 µM |
| CCCCN(CC)CCCNC(=O)c1ccc2c(c1)N(Cc1ccc(C)cc1)C(=O)c1ccccc1S2 |  | inconclusive: 10 µM [inhibitor, single point] |
| O=C(NCC(c1ccco1)N1CCCCC1)c1ccc(S(=O)(=O)Nc2ccccc2)cc1 (stereo not drawn) |  | inconclusive: 0.708 µM [inhibitor, full curve, poor fit] |
| COc1cc(NC(=O)COCc2cc(-c3ccc4c(c3)OCO4)on2)c(OC)cc1Cl | inactive: 9.61% [at 46.1 µM] |  |
| O=C(CS(=O)(=O)c1cccc2nsnc12)N1CCN(c2ccc(F)cc2)CC1 | inactive: -0.586% [at 46.1 µM] |  |
| CC(C)c1ccc(-c2nc(N3CCOCC3)[nH]c(=O)c2C#N)cc1 | inactive: -1.36% |  |
| O=C(CCCN1C(=O)/C(=C\c2ccco2)SC1=S)Nc1ccc2ccccc2c1 |  | inconclusive: 4.47 µM [inhibitor, full curve, poor fit] |
| CCc1nnc(NC(=O)CSc2nnc(-c3ccccc3O)n2CC)s1 | inactive: 4.3% |  |
| O=C(CN1CCN(S(=O)(=O)c2ccccc2F)CC1)Nc1ccccc1C(=O)c1ccccc1 |  | inconclusive: 29.1 µM [inhibitor, single point] |
| CCc1nccn1S(=O)(=O)c1ccc(Br)cc1Br | inactive: 2.09% |  |
| CC(C)N(Cc1nc(-c2ccccc2)no1)C(=O)C(Cl)(Cl)Cl |  | inconclusive: 20 µM [inhibitor, single point] |
| CC1(C)CC(=O)C(C=NCCN2CCN(C(=O)c3ccccc3)CC2)=C(O)C1 |  | inconclusive: 2.31 µM [activator, single point] |
| CN1CCC(NC(=O)c2cc(-c3cccc(Br)c3)nc3ccccc23)CC1 |  | inconclusive: 14.1 µM [inhibitor, single point] |
| Nc1ccc2c(c1)C(=O)c1cc([N+](=O)[O-])ccc1-2 | inactive: 27.2% |  |
| O=C(NCC1COc2ccccc2O1)c1ccc(NC(=O)C2CCCO2)cc1 (stereo not drawn) | inactive: 0.183% |  |
| O=C(Nc1ccc(N2CCN(C(=O)c3ccc(Cl)cc3)CC2)cc1)c1ccc([N+](=O)[O-])o1 | inactive: -28.8% [at 46.1 µM] |  |
